According to paper PMC8458541:
These are yes or no findings as the source states them, for the method shown. In cells and extracts the contact can be indirect. Some binding calls cover weakened binding; strength is not graded here.

Sequences of proteins named here, by UniProt entry; tags and fusion partners are left off.
UniProt Q62193: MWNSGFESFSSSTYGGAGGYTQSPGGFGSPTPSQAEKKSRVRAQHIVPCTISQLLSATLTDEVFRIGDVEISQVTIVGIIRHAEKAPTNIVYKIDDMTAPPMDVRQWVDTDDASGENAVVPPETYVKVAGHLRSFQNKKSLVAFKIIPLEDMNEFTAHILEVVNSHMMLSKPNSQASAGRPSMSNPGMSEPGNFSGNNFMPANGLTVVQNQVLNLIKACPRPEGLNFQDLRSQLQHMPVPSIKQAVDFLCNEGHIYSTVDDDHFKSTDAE
UniProt P09405: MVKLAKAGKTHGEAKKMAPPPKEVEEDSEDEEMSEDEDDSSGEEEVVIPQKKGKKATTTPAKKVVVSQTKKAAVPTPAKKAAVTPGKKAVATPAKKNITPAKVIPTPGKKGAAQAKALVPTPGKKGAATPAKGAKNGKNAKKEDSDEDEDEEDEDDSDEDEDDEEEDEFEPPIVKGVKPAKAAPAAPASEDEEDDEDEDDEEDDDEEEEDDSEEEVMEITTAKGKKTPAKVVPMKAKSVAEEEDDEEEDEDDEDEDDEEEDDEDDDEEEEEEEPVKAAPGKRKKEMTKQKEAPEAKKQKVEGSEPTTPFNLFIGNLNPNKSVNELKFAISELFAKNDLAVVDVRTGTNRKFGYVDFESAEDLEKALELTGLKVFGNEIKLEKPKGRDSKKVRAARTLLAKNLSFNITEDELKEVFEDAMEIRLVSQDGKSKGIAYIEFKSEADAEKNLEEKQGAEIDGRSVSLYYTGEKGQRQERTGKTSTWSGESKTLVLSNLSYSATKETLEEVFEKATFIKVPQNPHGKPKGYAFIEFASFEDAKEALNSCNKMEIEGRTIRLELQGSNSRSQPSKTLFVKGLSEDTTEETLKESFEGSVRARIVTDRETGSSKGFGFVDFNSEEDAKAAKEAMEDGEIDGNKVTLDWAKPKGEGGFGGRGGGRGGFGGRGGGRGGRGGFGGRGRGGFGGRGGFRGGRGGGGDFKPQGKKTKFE

Columns and labels:
[1] = molecular target: RPA32, subunit of the replication protein A (RPA) complex (mouse (endogenous in mESCs and MEFs)) (UniProt Q62193); assay: co-IP; immunoprecipitation with 2.5 ug RPA32 antibody on Protein G Dynabeads from RIPA lysates of mouse ESCs (Discn knockdown control KD-C, KD-1, KD-2); cells normal or treated with HU (2 mM, 4 h); NCL detected by immunoblot; isotype IgG as control
[2] = molecular target: RPA32, subunit of the replication protein A (RPA) complex (mouse (endogenous in mESCs and MEFs)) (UniProt Q62193); assay: co-IP; immunoprecipitation with 2.5 ug RPA32 antibody on Protein G Dynabeads from RIPA lysates of MEFs with vector or ectopic Discn; cells normal or treated with HU, etoposide or heat shock; NCL detected by immunoblot; isotype IgG as control

- binding [1]: binds
- binding [2]: binds
Substance: nucleolin (NCL) (from UniProt P09405 1-707)
